# The whole screen tested about 300,000 compounds, of which about 5,400 (1.8%) were called active. Inconclusive means that the source gave no clear call. Such entries were picked first, then a sample of the others. Calls follow the shape of the full dose curve; tested in HEK293 cells. Potencies of inconclusive entries are doubtful fits and often do not repeat.
# Assay: qHTS for inhibitors of binding or entry into cells for Marburg Virus
# Conditions: Marburg virus pseudotyped entry inhibition, cell reporter; series mostly up to 37.8 µM
# Potency is read from the fitted curve at half-maximal effect.
row,SMILES,Potency
1,CCc1ccc(OCC(=O)NCC(c2ccc(Cl)cc2)N2CCOCC2)cc1 (stereo unspecified),inactive
2,COc1ccc(NC(=O)CN(C)CCOc2ccc(Cl)cc2)cc1OC,inactive
3,CC1(C)Cc2c(c(N3CCOCC3)nc3snc(Br)c23)CO1,inactive
4,Cc1cc(C)c(NC(=O)c2ccc(CN3CCc4ccccc4C3)cc2)c(C)c1,"inconclusive: 35.5 µM [inhibitor, single point]"
5,Cn1c(C(C(=O)NCC2CCCO2)N(C(=O)Cn2nnc3ccccc32)C2CCCCC2)nc2ccccc21 (stereo unspecified),"inconclusive: 0.291 µM [inhibitor, partial curve, poor fit]"
6,CCCC12CN3CC(C)(CN(C1)C3c1ccc(CC)cc1)C2=O (stereo unspecified),inactive
7,CCOC(=O)c1ccc2ncc(C(=O)OCC)c(NCCc3ccc(OC)c(OC)c3)c2c1,inactive
8,COc1ccc(C(=O)N[C@H](C(=O)NCCCSc2ccccc2)C(C)C)cc1,"inconclusive: 0.794 µM [inhibitor, single point]"
9,CCn1c2c(c(=N)c3c1CCC3)CCCC2,"inconclusive: 35.5 µM [inhibitor, single point]"
10,CCCCn1c(N)c(N(CCOC)C(=O)CN(C)S(=O)(=O)c2ccc(F)cc2)c(=O)[nH]c1=O,inactive
11,Cc1cc([N+](=O)[O-])cc2c1NCC1CC=CC21 (stereo unspecified),"inconclusive: 6.51 µM [activator, single point]"
12,CC(C)c1ccc(NC(=O)c2cc3c(=O)oc4ccccc4c3s2)cc1,"inconclusive: 10 µM [activator, partial curve, poor fit]"
13,O=C(COc1ccccc1)Nc1ccc(CSc2ccccc2)cc1,"inconclusive: 35.5 µM [inhibitor, single point]"
14,CCc1ccc(NC(=S)NC2CC3CCC(C2)N3Cc2ccco2)cc1 (stereo unspecified),"inconclusive: 0.259 µM [inhibitor, full curve, poor fit]"
15,Cc1ccc(N2C(=O)c3ccccc3NC2C(C)Cc2ccc3c(c2)OCO3)cc1 (stereo unspecified),"inconclusive: 29.1 µM [inhibitor, single point]"
16,Cc1c(N=C2SCC(=O)N2/N=C/c2ccccc2)c(=O)n(-c2ccccc2)n1C,"inconclusive: 1.12 µM [inhibitor, single point]"
17,CC1CCCC(C)N1CC(O)COc1c(F)cc(Br)cc1F (stereo unspecified),"inconclusive: 6.31 µM [inhibitor, full curve, poor fit]"
18,CCOC(=O)c1ccc(Oc2coc3cc(O)ccc3c2=O)cc1,inactive
19,CCn1cc(/C=N\NC(=O)c2csc3ccccc23)c(C)n1,inactive
20,COc1ccc(-c2nc3ccccn3c2C=O)cc1,"inconclusive: 35.5 µM [inhibitor, single point]"
21,CCOC(=O)CC1(NC(=O)c2cc(COc3cncc(Cl)c3)on2)CCCCC1,"inconclusive: 35.5 µM [inhibitor, single point]"
22,Cc1ccc(OCCCn2c(=O)oc3ccccc32)cc1,"inconclusive: 3.55 µM [activator, full curve]"
23,CN1C(=O)NC(c2ccccc2[N+](=O)[O-])C2=C1CC(C)(C)CC2=O (stereo unspecified),"inconclusive: 7.08 µM [activator, full curve, poor fit]"
24,O=C(N/N=C/c1ccc(OCC(=O)N2CCOCC2)cc1)c1ccccc1Cl,"inconclusive: 1.12 µM [activator, full curve, poor fit]"

# Fetched by structure from the entries so far, 6 records:
row,SMILES,Potency
24,O=C(N/N=C/c1ccc(OCC(=O)N2CCOCC2)cc1)c1ccccc1Cl,"inconclusive: 1.12 µM [activator, full curve, poor fit]"
2,COc1ccc(NC(=O)CN(C)CCOc2ccc(Cl)cc2)cc1OC,inactive
22,Cc1ccc(OCCCn2c(=O)oc3ccccc32)cc1,"inconclusive: 3.55 µM [activator, full curve]"
4,Cc1cc(C)c(NC(=O)c2ccc(CN3CCc4ccccc4C3)cc2)c(C)c1,"inconclusive: 35.5 µM [inhibitor, single point]"
12,CC(C)c1ccc(NC(=O)c2cc3c(=O)oc4ccccc4c3s2)cc1,"inconclusive: 10 µM [activator, partial curve, poor fit]"
10,CCCCn1c(N)c(N(CCOC)C(=O)CN(C)S(=O)(=O)c2ccc(F)cc2)c(=O)[nH]c1=O,inactive

# (more compounds)

row,SMILES,Potency
1,Cc1cc(C)nc(Nc2n[nH]c(C)n2)n1,inactive
2,Cc1ccc(S(=O)(=O)N2CCCCC2CCNC(=O)C(=O)NCc2ccco2)cc1 (stereo unspecified),"inconclusive: 5.62 µM [inhibitor, partial curve, poor fit]"
3,Cc1nnc(SCSc2nnc(C)s2)s1,inactive
4,O=C(CN1CCN(C(=O)C2CC2)CC1)Nc1ccc(Cl)cc1F,inactive
5,Cc1ccc2[nH]c3nc(CCCn4ccnc4-c4ccccc4)nnc3c2c1,inactive
6,CCC1(CC)NC(=O)N(CC(=O)OCC(=O)Nc2ccccc2[N+](=O)[O-])C1=O,"inconclusive: 11.2 µM [activator, partial curve, poor fit]"
7,O=C(CSc1nnc(-c2cccnc2)o1)Nc1ccccc1Br,"inconclusive: 3.55 µM [inhibitor, single point]"
8,O=C(O)[C@@H]1CCCN1C(=O)c1ccco1,"inconclusive: 22.4 µM [activator, single point]"
9,CC(C)(C)C(=O)CSc1ncnc2sc3c(c12)CCC3,inactive
10,CC(=O)c1cnc2c(-c3ccc(Cl)cc3)cnn2c1C,"inconclusive: 0.398 µM [activator, single point]"
11,Cc1nc(-c2ccc(Cl)cc2)sc1C(=O)O,"inconclusive: 2.82 µM [activator, partial curve, poor fit]"
12,COC(=O)c1cc(OC)c(OC)cc1NC(=O)c1c(-c2ccccc2)noc1C,"inconclusive: 13 µM [inhibitor, partial curve, poor fit]"
13,Cn1c(=O)n(CCCOc2ccc(Cl)cc2)c2ccccc21,inactive
14,C=CC[C@H]1CC(Cc2ccccc2)=C[C@H](CC=C)N1,"inconclusive: 11.2 µM [inhibitor, partial curve, poor fit]"
15,Cn1c(-c2ccccc2)c(O)c(=O)c2ccccc21,"inconclusive: 1.5 µM [activator, partial curve, poor fit]"
16,COC(=O)CSC1=C(C#N)C(c2cccc(F)c2)CC(=O)N1 (stereo unspecified),"inconclusive: 3.98 µM [inhibitor, partial curve]"
17,Cc1ccccc1NC(=O)Cn1c(=O)n(-c2ccc(CC(=O)NCC3CCCO3)cc2)c(=O)c2ccccc21 (stereo unspecified),"inconclusive: 4.47 µM [inhibitor, full curve]"
18,Cc1cc(C)c(C)c(S(=O)(=O)N2CCN(C(=O)C3CCC3)CC2)c1C,"inconclusive: 28.2 µM [inhibitor, partial curve, poor fit]"
19,CCn1c(COc2ccccc2)nnc1SCC(=O)C(C)(C)C,"inconclusive: 35.5 µM [inhibitor, single point]"
20,COC(=O)c1ccc(NC2=C(Cl)C(=O)OC2OC(=O)c2ccccc2)cc1 (stereo unspecified),inactive
21,COc1ccc(Cl)cc1NC(=O)CSc1nnc(CNC(=O)c2cccs2)o1,inactive
22,Cc1c(CCOC(=O)C23CC4CC(CC(C4)C2)C3)sc[n+]1Cc1ccccc1,inactive
23,CCOc1cc(C2C(C#N)=C(N)OC(C)=C2C(C)=O)c(Br)c(Br)c1OC(C)C (stereo unspecified),inactive
24,Cc1cc(C)c(OCC(=O)NCC2COc3ccccc3O2)c(C)c1 (stereo unspecified),active: 3.55 µM

row,SMILES,Potency
1,CCN(CC)C(=O)Oc1ccc(Br)c2ccccc12,"inconclusive: 0.1 µM [inhibitor, full curve, poor fit]"
2,O=c1c2ccccc2nc2c3ccccc3c(NCc3ccco3)nn12,inactive
3,Cc1cccc(C)c1OCCOCCN1CCN(C)CC1,"inconclusive: 0.411 µM [activator, partial curve, poor fit]"
4,Cn1c(=O)n(CCc2ccccc2)c(=O)c2c1ncn2Cc1ccccc1,"inconclusive: 23.1 µM [inhibitor, single point]"
5,COc1cc(/C=C(\C#N)c2nc3ccc(C)cc3[nH]2)ccc1OC(C)C,"inconclusive: 3.55 µM [activator, partial curve, poor fit]"
6,CCOC(=O)C(NCc1ccc(F)cc1)(NC(=O)c1ccccc1)C(F)(F)F (stereo unspecified),inactive
7,C=CCn1c(-c2cnn(-c3ccccc3)c2N)n[nH]c1=S,"inconclusive: 0.316 µM [activator, partial curve, poor fit]"
8,Cc1ccccc1C(=O)c1c[nH]c(C(=O)N2CCN(c3ccccc3F)CC2)c1,"inconclusive: 35.5 µM [inhibitor, single point]"
9,Cc1ccc(C(=O)c2cn(Cc3ccccc3F)c3cc4c(cc3c2=O)OCO4)cc1,inactive
10,C/C(=N\NC(=O)Cn1c(-c2ccccn2)nc2ccccc21)c1ccccc1,"inconclusive: 35.5 µM [inhibitor, single point]"
11,Cc1ccc(OCCN2CCN(C(=O)CCC(=O)Nc3nnc(CC(C)C)s3)CC2)cc1,"inconclusive: 11.2 µM [inhibitor, partial curve]"
12,COc1cccc(-c2cc(C(=O)O)no2)c1,inactive
13,Cc1ccc(CCNC(=O)c2cc3sccc3n2Cc2ccc(F)cc2)cc1,inactive
14,CCOC(=O)c1nnn(-c2nonc2N)c1-c1ccc(C)cc1,"inconclusive: 7.94 µM [inhibitor, partial curve, poor fit]"
15,O=c1cc(N2CCCCC2)c(-c2ccccc2)nn1Cc1ccc(F)cc1,"inconclusive: 17.8 µM [inhibitor, single point]"
16,Cc1sc2ncn(CC(=O)NCCCOC(C)C)c(=O)c2c1S(=O)(=O)N1CCN(c2ncccn2)CC1,inactive
17,CCc1nc(C)cn1S(=O)(=O)c1cc([N+](=O)[O-])ccc1Cl,"inconclusive: 4.47 µM [inhibitor, full curve, poor fit]"
18,Cc1cc(C)n(CC(O)Cn2c3ccc(Cl)cc3c3cc(Cl)ccc32)c(=O)n1 (stereo unspecified),inactive
19,CSCCC(NC(=O)c1ccccc1)C(=O)NCCc1ccccc1 (stereo unspecified),"inconclusive: 12.6 µM [inhibitor, partial curve, poor fit]"
20,COC(=O)c1ccc(NC(=O)C2CCCCC2C(=O)O)cc1 (stereo unspecified),"inconclusive: 0.326 µM [inhibitor, partial curve, poor fit]"
21,Oc1ccc(N2Cc3ccccc3C2)cc1,"inconclusive: 11.2 µM [activator, single point]"
22,Cc1ccc(NS(=O)(=O)c2cc(C(=O)NCCSc3ccc(C)cc3)ccc2C)cc1,"inconclusive: 23.1 µM [inhibitor, partial curve, poor fit]"
23,CCNC1CCC(Nc2ccnc3cc(Cl)ccc23)CC1 (stereo unspecified),"inconclusive: 2.24 µM [inhibitor, full curve, poor fit]"

# Source: PubChem BioAssay AID540276 (National Center for Advancing Translational Sciences (NCATS), 2011)
